Values joined by “and” are separate entries in the source; they are usually repeats but may differ in a detail not shown here. Identical values can stand only once. Like-named read-outs stand apart in the source and are kept apart here. Further values from the same series stand in other lists.

One compound from US20110130466A1 (priority 2009, published 2011) can be followed below.

The experiment has as its system PSP patients. The following applies: individual PSP patient (table line = patient Nr). The procedure:
Eight men and nine women were treated.
The following clinical factors were analyzed: • 1. Patients and relatives received a protocol to document the frequency of falls. • 2. 12 of the patients were analyzed using posturographic measurements. • 3. Depression was evaluated using clinical criteria (DSM-IV). • 4. Eye movements were orthoptically evaluated (in some cases an electronystagmogram was performed). • 5. Dysarthria was investigated using the Bogenhausener dysarthria scale (BoDys) (ranges from 4=normal until 0=anarthria). • 6. Dysphagia was clinically documented and the introduction of a percutaneous feeding tube (PEG) was recorded. • 7. Incidence of pneumonia was recorded. • 8. Impulse control disorder and hallucinations were recorded. • 9. Possible side effects were recorded. • 10.

Turning to `C#CCN[C@@H]1CCc2ccccc21` [rasagiline, R(+)-N-propargyl-1-aminoindan], the frequency of falls is 13 falls/week and 25 falls/week (1 Month of rasagiline 1 mg/day); 21 falls/week and 12 falls/week and 27 falls/week (2 Months of rasagiline 1 mg/day); 12 falls/week (3 Months of rasagiline 1 mg/day); 13 falls/week and 22 falls/week and 25 falls/week (6 Months of rasagiline 1 mg/day); 18 falls/week and 26 falls/week (7 Months of rasagiline 1 mg/day); 16 falls/week and 29 falls/week and 28 falls/week (8 Months of rasagiline 1 mg/day). In addition, the frequency of falls runs as follows: (9 Months of rasagiline 1 mg/day) 15 falls/week and 26 falls/week; (10 Months of rasagiline 1 mg/day) 18 falls/week and 24 falls/week; (11 Months of rasagiline 1 mg/day) 25 falls/week and 18 falls/week; (12 Months of rasagiline 1 mg/day) 20 falls/week and 29 falls/week.
